Series [1] is described as follows: Candidate marker selection across the three proteomic studies (FIG. 8). The conditions noted are these: inventors' proteomic studies.
The nature of series [2]: RRT study: LC-MS/MS urinary proteomics, AKI after cardiac surgery, RRT vs No RRT. Set-up: species or system human. Particulars: for Mean No RRT / Mean RRT: urine; for Mean No RRT: AKI patients who did not require RRT (n=6); for Mean RRT: AKI patients who required RRT (n=6).
Series [3] can be described thus: Urinary angiotensinogen ELISA corrected for urine creatinine (uAnCR), AKI after cardiac surgery. Set-up: species or system human. (In an ELISA, binding on a coated surface is turned into a signal by an enzyme label.)
The mark [4] stands for this setting: RRT vs No RRT, positive = elevated in RRT group.
Setting [5] is: direction of urinary abundance, patients who did vs did not require RRT/dialysis.
Setting [6] is: patients who did vs did not require RRT/dialysis, read with the Up or Down column.

B1: CD59 glycoprotein: urinary protein, binds and neutralizes the membrane attack complex (protein, UniProt P13987 26-102, looked up)
CD59 glycoprotein: LQCYNCPNPTADCKTAVNCSSDFDACLITKAGLQVYNKCWKFEHCNFNDVTTRLRENELTYYCCKKDLCNFNEQLEN
On to B1, for which, in series [1], the “change of the protein in urine in AKI” value is on record as “decrease”. The “Up or Down” value in series [2] (direction of differential abundance, patients who did vs did not require RRT/dialysis) was “Down”. For the same molecule, in series [2] (patients who did vs did not require RRT/dialysis), the “Mean Fold Change” value was 1.699.

B2: Secreted Ly-6/uPAR-related protein 1: urinary protein, Uniprot P55000 (protein, UniProt P55000 23-103, looked up)
Secreted Ly-6/uPAR-related …: LKCYTCKEPMTSASCRTITRCKPEDTACMTTLVTVEAEYPFNQSPVVTRSCSSSCVATDPDSIGAAHLIFCCFRDLCNSEL
For B2, in series [1], the “change of the protein in urine in AKI” value is given as “decrease”. Also, the “Mean Fold Change” value in series [2] (setting [4]) is reported as −1.414. In series [2] (setting [5]), the “Up or Down” value is on record as “Down”. For the same molecule, in series [2] (setting [6]), the “Mean Fold Change” value turned out to be 4.241. Besides, in series [2], the “Mean No RRT” value was 4.49 normalized spectral counts and the “Mean RRT” value is recorded as 3.18 normalized spectral counts.

B3: Angiotensinogen: urinary protein biomarker, Uniprot P01019; uAnCR = urine angiotensinogen-to-creatinine ratio (protein)
chain: MRKRAPQSEMAPAGVSLRATILCCLLAWAGLAAGDRVYIHIPFHLVIHNESTCEQLAKANAGKPKDPTFIPAPIQAKTSPVDEKALQDQLVLVAAKLDTEDKLRAAMVGMLANFLGFRIYGMHSELWGVVHGATVLSPTAVFGTLASLYLGALDHTADRLQAILGVPWKDKNCTSRLDAHKVLSALQAVAQGLLVAQGRADSQAQLLLSTVVGVFTAPGLHLKQPFVQGLALYTPVVLPRSLDFTELDVAAEKIDRFMQAVTGWKTGCSLMGASVDSTLAFNTYVHFQGKMKGFSLLAEPQEFWVDNSTSVSVPMLSGMGTFQHWSDIQDNFSVTQVPFTESACLLLIQPHYASDLDKVEGLTFQQNSLNWMKKLSPRTIHLTMPQLVLQGSYDLQDLLAQAELPAILHTELNLQKLSNDRIRVGEVLNSIFFELEADEREPTESTQQLNKPEVLEVTLNRPFLFAVYDQSATALHFLGRVANPLSTA
In the case of B3, the “Mean Fold Change” value in series [2] (setting [4]) is 9.674; in series [2] (setting [6]) it was 29.02. The “Up or Down” value in series [2] (setting [5]) is listed as “Up”. Also, the “Mean No RRT” value in series [2] is on record as 1.69 normalized spectral counts. Also, in series [2], the “Mean RRT” value is given as 16.33 normalized spectral counts. The “uAnCr (median)” value worked out at 22.6 ng/mg in series [3] (maximum AKIN Stage 1, AKI of any stage at sample collection); 22.6 ng/mg in series [3] (maximum AKIN Stage 1, AKIN Stage 1 at sample collection); 34.1 ng/mg in series [3] (maximum AKIN Stage 2, AKI of any stage at sample collection); 35.3 ng/mg in series [3] (maximum AKIN Stage 2, AKIN Stage 1 at sample collection); 58.8 ng/mg in series [3] (maximum AKIN Stage 3, AKI of any stage at sample collection); 77.0 ng/mg in series [3] (maximum AKIN Stage 3, AKIN Stage 1 at sample collection).

The values are drawn from patent US20140038203A1, “METHODS FOR DETECTING OR PREDICTING KIDNEY DISEASE” (MUSC FOUNDATION FOR RESEARCH DEVELOPMENT, priority 2012, published 2014).
